The values below come from PubChem BioAssay AID2685 (National Center for Advancing Translational Sciences (NCATS), 2010).

The list shows a part of the results. Shown are side measurements of this screen, not its main read-out; they come without a call. Compounds called inactive in the main read-out are mostly missing here. Words in brackets tell the shape of the fitted curve; partial curves, single points and poor fits give uncertain potencies.

The nature of this assay: qHTS Assay for Lipid Storage Modulators in Drosophila S3 Cells.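 For cell number change: cells counted by Cell Tracker Red CMTPX staining in the red channel.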 Particulars: BODIPY lipid droplet fluorescence, 18-24 h; for cell number change: measured here: cell count max response, cells fed with added oleic acid. The essentials: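 Drosophila S3 cells loaded with oleic acid (400 uM, as added) and compounds at several concentrations; lipid droplets imaged by 488-nm laser-scanning cytometry, 500–530 nm intensity and object ratio to cell channel. Percent activity normalized to 20 uM Triacsin C.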
In general terms: Quantitative high-throughput screening tests each substance at several concentrations.

Setting [1] is: measured here: lipid fluorescence (Fed channel) AC50, cells fed with added oleic acid.
The mark [2] stands for this setting: measured here: cell number channel AC50, cells fed with added oleic acid.

`O=C(O)C1CCCCC1C(=O)NCCc1ccncc1` (configuration not stated): the cell number change is -3.9%. The AC50 – broadly, the concentration at which the activity in the assay is half-maximal – under setting [1] was 0.651 µM [falling, full curve, poor fit]. In the case of `Cc1ccc(S(=O)(=O)N2CCC(C(=O)Nc3ncccc3O)CC2)cc1`, the cell number change is 1.16%. Moreover, under setting [1], the AC50 was 29.1 µM [falling, single point]. As to `CC1(NC(=O)Nc2cc([N+](=O)[O-])ccc2O)CCS(=O)(=O)C1` (configuration not stated), the AC50 under setting [1] is 29.1 µM [rising, single point]. With `Cc1ccc(NP(=O)(Nc2ccc(C)cc2)Nc2ccc(C)cc2)cc1`, the cell number change is 51.5%. Under setting [2], the AC50 was 18.4 µM [rising, single point]. In the case of `C/C(=N\OCC(=O)Nc1ccc(OC(F)(F)F)cc1)c1ccc2c(c1)OCCO2`, the cell number change amounted to 42.3%. In addition, the AC50 under setting [2] was 11.6 µM [rising, partial curve, poor fit]. Besides, the AC50 under setting [1] was 29.1 µM [rising, single point]. For the compound `CC(C)Cc1nc(N2CCN(C(=O)Cc3ccccc3)CC2)c(C#N)c2c1COC(C)(C)C2`, the cell number change was -10.4%. `CCc1ccccc1NC(=O)COc1cccc2ccc(C)nc12`: the cell number change was -50.6%. Under setting [2], the AC50 was 11.6 µM [falling, partial curve, poor fit]. Also, the AC50 under setting [1] was 2.06 µM [rising, partial curve]. On to `CC(=O)c1c(C)[nH]c(C(=O)Nc2ccc(C)c(C)c2)c1C`, for which the AC50 under setting [1] was 5.8 µM [rising, partial curve]. As for `Cc1ccc(CNC(=O)C(Cc2ccccc2)NS(=O)(=O)c2ccc3c(c2)CCC(=O)N3)cc1` (configuration not stated), the cell number change is -11%. Besides, the AC50 under setting [1] was 1.3 µM [rising, full curve, poor fit].

On to `Cc1ccccc1S(=O)(=O)Cc1ccc(C(=O)O)o1`, for which the cell number change is -79.2%. Moreover, under setting [2], the AC50 is 5.17 µM [falling, full curve]. In the case of `COc1ccc(-n2c(SCC#N)nc3c(sc(=S)n3-c3ccccc3)c2=O)c(OC)c1`, the cell number change was 43.7%. The AC50 under setting [2] was 14.6 µM [rising, partial curve]. Besides, the AC50 under setting [1] is 8.2 µM [rising, partial curve]. As for `CN(Cc1ccc(C(C)(C)C)cc1)C(=O)c1ccc2c(c1)OCO2`, the AC50 under setting [2] is 3.26 µM [rising, partial curve]. On the same count and under the same terms, next, `N/C(Cc1ccc(Cl)cc1Cl)=N\OC(=O)c1cccs1`: 0.00651 µM [falling, full curve, poor fit]. Consider `COc1ccc(-c2[nH]ncc2CN2CCC(c3ccncc3)CC2)cc1F`, for which the cell number change is -3.87%. Moreover, the AC50 under setting [1] is 0.58 µM [falling, single point].

With `COc1ccc(NC(=O)CSc2nnc(-c3cccnc3)s2)cc1`, under setting [1], the AC50 is 8.2 µM [rising, partial curve]. In the case of `C=CCN(Cc1ccc(Cl)s1)C(=O)c1cc(S(=O)(=O)N2CCOCC2)ccc1F`, the cell number change is -20.8%.

In the case of `CCC(C)N(CCNC(=O)CC1Oc2ccc(C)cc2NC1=O)C1CCCCC1` (configuration not stated), the cell number change is -1.9%. The AC50 under setting [1] was 0.058 µM [falling, full curve, poor fit]. As for `CCCCn1c(/C=C/c2ccco2)nc2ccccc21`, the cell number change was -16.3%. For the same compound, the AC50 under setting [1] was 20.6 µM [falling, single point]. Turning to `COc1ccc(OC)c(CCNC(=O)CC2Oc3ccc(C)cc3NC2=O)c1` (configuration not stated), the cell number change was -0.0506%. As to `Cc1cc(NC(=O)CCN2C(=O)C3C4C=CC(C4)C3C2=O)ccc1Br` (configuration not stated), the cell number change was 76.4%. Under setting [2], the AC50 was 20.6 µM [rising, partial curve, poor fit].

In the case of `Cc1onc(-c2ccccc2)c1C(=O)OCC(=O)NC(=O)c1ccccc1`, the cell number change is -4.82%. With `Cc1ccc(NC(=O)C(C)Oc2ccccc2)cc1S(=O)(=O)N1CCCCCC1` (configuration not stated), the cell number change was -10.4%. For the same compound, the AC50 under setting [1] is 0.0651 µM [rising, full curve, poor fit]. As for `Cc1ccnc(NS(=O)(=O)c2ccc(NC(=O)c3ccc(Br)o3)cc2)n1`, the cell number change was -42.6%. Moreover, under setting [2], the half-maximal activity concentration (AC50) is 3.66 µM [falling, single point]. Regarding `CCCc1[nH]nc2c1C(C1CCCCC1)C(C#N)=C(N)O2` (configuration not stated), the AC50 under setting [2] is 3.26 µM [rising, single point]. Consider `Nn1c(SCC(=O)NCCC2=CCCCC2)nnc1C(F)(F)F`, for which the cell number change was -17.9%. In addition, under setting [1], the AC50 is 29.1 µM [falling, single point]. Take `COc1cc(OC)c(-c2c3cc(O)c(=O)cc-3oc3cc(O)c(O)cc23)cc1OC`: the cell number change was -98.9%. Further, the AC50 under setting [2] is 5.17 µM [falling, full curve]. In addition, the AC50 under setting [1] is 3.26 µM [falling, full curve]. Regarding `C/C(N)=C(/C#N)C(=O)COC(=O)c1ccc(O)cc1`, the cell number change was determined as 15.7%. As for `CCCN1C(=O)/C(=C/C=C2\N(CC)c3ccccc3C2(C)C)SC1=S`, the cell number change is -67.3%. Besides, the AC50 under setting [2] is 1.3 µM [falling, full curve]. Moreover, the AC50 under setting [1] is 1.3 µM [falling, full curve]. Regarding `CN(C)CCCOc1cccc(Cl)c1`, the cell number change is -15.6%. The AC50 under setting [1] was 0.13 µM [falling, full curve, poor fit]. Regarding `O=C(CSc1nnnn1C1CCCC1)Nc1cccc(NC(=O)c2ccco2)c1`, the cell number change was found to be 30.9%. Further, under setting [2], the AC50 was 1.46 µM [rising, partial curve, poor fit].

In the case of `COc1ccc(O)c(-c2cc(-c3cccc(Br)c3)n[nH]2)c1`, the cell number change is -30%. In addition, the AC50 under setting [2] is 29.1 µM [falling, single point]. Also, the AC50 under setting [1] is 29.1 µM [falling, single point].

On to `CCOc1ccc(N(CC(=O)NC2CCCCC2)C(=O)Cn2nnc(-c3ccc(C)o3)n2)cc1`, for which the cell number change was found to be 17.3%.

As for `CC(C)CN(C(=O)COC(=O)c1cnccn1)c1c(N)n(Cc2ccccc2)c(=O)[nH]c1=O`, the cell number change is -29%. In addition, the AC50 under setting [2] is 0.82 µM [falling, full curve, poor fit].

Turning to `Cc1c(OC(C)C(=O)NC2CC(C)(C)NC(C)(C)C2)ccc2c3c(c(=O)oc12)CCC3` (configuration not stated), the cell number change was 22%. In addition, the AC50 under setting [1] was 6.51 µM [rising, single point]. For the compound `Cn1c2cc(B(O)O)sc2c2cnn(Cc3ccc(F)cc3F)c(=O)c21`, the cell number change is 44.3%. Also, the AC50 under setting [2] was 2.91 µM [rising, single point]. For the same compound, the AC50 under setting [1] was 18.4 µM [rising, partial curve].

With `CCOc1ccccc1C(=O)N[C@H](C(=O)Nc1ccc(OC)c(S(=O)(=O)N2CCOCC2)c1)C(C)C`, the cell number change is 42.4%. Further, the AC50 under setting [2] was 18.4 µM [rising, partial curve, poor fit]. `COc1ccc(-n2nnnc2CNC(=O)c2ccc3ccccc3c2)cc1`: the cell number change is 71.7%. Also, the AC50 under setting [2] is 14.6 µM [rising, partial curve].

On to `CCOC(=O)NC1(C(F)(F)F)NC(=O)N(Cc2ccco2)C1=O` (configuration not stated), for which the cell number change is -15.4%. Turning to `COc1cc(OC)cc(C(=O)n2cnnc2N)c1`, the cell number change was -68.8%. Further, under setting [2], the AC50 is 29.1 µM [falling, single point].

With `COc1ccccc1CN(Cc1nc2ccccc2c(=O)[nH]1)C(=O)Nc1ccccc1C`, the cell number change turned out to be 22.5%. For the same compound, the AC50 under setting [1] was 0.00461 µM [rising, full curve, poor fit]. For the compound `COc1cccc(N/C=C(\C#N)c2ccc(OCCCF)cc2)c1`, the cell number change is -3.1%. As to `CC(C)c1ccc(/C=N/Nc2ccc(C(=O)O)cc2)cc1`, the cell number change was -50.3%. Also, the AC50 under setting [2] is 18.4 µM [falling, partial curve, poor fit]. `N#CCSc1nnc(C2CCCCC2)n1Cc1ccccc1`: the cell number change is 1.29%. As to `O=C(NCc1ccccc1)c1ccc2ccccc2n1`, the cell number change was 29%. Further, under setting [1], the AC50 was 29.1 µM [rising, single point]. Turning to `Nc1nonc1-c1nc2ccccc2n1CC(=O)N1CCN(c2ccc(F)cc2)CC1`, the AC50 under setting [2] was 0.517 µM [rising, full curve, poor fit] and the half-maximal activity concentration (AC50) under setting [1] was 0.82 µM [rising, full curve].

Turning to `O=C(COC(=O)CCc1nc2ccccc2c(=O)[nH]1)NC(=O)NC1CCCC1`, the cell number change is -50%. Also, under setting [2], the AC50 was 23.1 µM [falling, single point]. Besides, the AC50 under setting [1] was 6.51 µM [falling, single point]. Consider `COc1ccc(NC(=O)c2ccc(C(=O)c3cc(OC)ccc3OC)cc2)cc1`, for which the cell number change is -11.2%. Besides, the AC50 under setting [2] was 0.00517 µM [falling, partial curve, poor fit]. Regarding `COc1ccc(CCC(=O)N2CCCc3ccccc32)cc1`, the cell number change is -22.2%. Under setting [1], the AC50 is 29.1 µM [falling, single point]. On to `CCC(C)NC(=O)Cn1cc(S(=O)(=O)N2CCN(c3ccccc3F)CC2)c2ccccc2c1=O` (configuration not stated), for which the cell number change turned out to be 14.2%. The AC50 under setting [2] was 0.092 µM [rising, partial curve, poor fit]. Turning to `O=C1C=CC(=O)N1c1ccc(N2CCCCC2)cc1`, the cell number change was -59.3%. Under setting [2], the AC50 is 7.31 µM [falling, partial curve]. Further, the AC50 under setting [1] is 20.6 µM [falling, single point]. Take `COc1cc(NC(=O)c2nccn2C)cc(C(=O)Nc2cccc(C(F)(F)F)c2)c1`: the cell number change is -32.4%. Moreover, the AC50 under setting [2] was 29.1 µM [falling, single point]. Under setting [1], the AC50 is 32.6 µM [falling, single point]. As to `COCCOC(=O)C1=C(C)NC2=C(C(=O)CC(C)(C)C2)C1c1ccc(N(C)C)cc1` (configuration not stated), the cell number change is -6.03%. For the same compound, the AC50 under setting [1] is 2.91 µM [falling, single point]. Regarding `Cc1cc(C)cc(NC(=O)c2snc3c(=O)[nH]cnc23)c1`, the cell number change is -66.1%. Also, the AC50 under setting [2] was 32.6 µM [falling, single point]. Besides, under setting [1], the AC50 was 29.1 µM [falling, single point]. On to `CC1(c2ccccc2)CC(C)(C)N2C(=O)C3(C(C#N)=C(N)Oc4cc(O)ccc43)c3cccc1c32` (configuration not stated), for which the cell number change was -89.8%. In addition, the AC50 under setting [2] was 18.4 µM [falling, single point]. Further, the AC50 under setting [1] was 29.1 µM [falling, single point]. Take `COC(=O)c1c(-c2ccccc2OC)sc2ccc(OC)cc12`: the cell number change is -9.15%. In addition, the AC50 under setting [1] is 4.11 µM [falling, single point]. Take `CCN(CC)S(=O)(=O)c1ccc(NS(=O)(=O)c2ccc(O)c([N+](=O)[O-])c2)cc1`: the cell number change is -34.6%. For the same compound, the AC50 under setting [2] was 0.00461 µM [falling, full curve, poor fit]. In addition, the AC50 under setting [1] is 6.51 µM [falling, single point]. As to `Cc1ccc(Nc2nc(N/N=C/c3c[nH]c4ccccc34)nc(N3CCOCC3)n2)cc1`, the cell number change was -23.2%. Under setting [1], the half-maximal activity concentration (AC50) is 16.4 µM [falling, partial curve, poor fit].
